US20240344241A1, “PROTEINACEOUS MOLECULES AND USES THEREFOR” (THE UNIVERSITY OF QUEENSLAND, priority 2021, published 2024)

Test: Ex vivo extracorporeal membrane oxygenation (ECMO) model, circuit parameters
Parameters: species or system human
Settings: over the 6 h time course; MCoFx7 single dose 20 μM, heparin 350 UI plus top-ups

CC[C@H](C)[C@@H]1NC(=O)CNC(=O)CNC(=O)[C@H](CC(=O)O)NC(=O)[C@H](CO)NC(=O)CNC(=O)[C@H](CO)NC(=O)CNC(=O)[C@@H]2CSSC[C@@H]3NC(=O)[C@H](CC(=O)O)NC(=O)[C@H](CO)NC(=O)[C@H](CC(=O)O)NC(=O)[C@H](CCCNC(=N)N)NC(=O)[C@H](CCCNC(=N)N)NC(=O)[C@@H]4CSSC[C@H](NC(=O)[C@H]([C@@H](C)CC)NC(=O)[C@H](CSSC[C@H](NC1=O)C(=O)N1CCC[C@H]1C(=O)N[C@@H](CCCNC(=N)N)C(=O)N[C@@H]([C@@H](C)CC)C(=O)NCC(=O)N[C@@H](CCCNC(=N)N)C(=O)N[C@@H](CC(C)C)C(=O)N4)NC(=O)[C@H](C)NC(=O)CNC(=O)[C@@H]1CCCN1C3=O)C(=O)N[C@@H](CCCNC(=N)N)C(=O)N[C@@H](C)C(=O)N[C@@H]([C@@H](C)O)C(=O)N[C@@H](CCCNC(=N)N)C(=O)N[C@@H](Cc1ccccc1)C(=O)N2 [Cyclic MCoFx7] (cyclo(ACICRATRFCGSGSDGGICPRIGRLCRRDSDCPG); disulfide 2-19, 4-26, 10-32)
delta oxygenator P: ~23 mmHg

heparin [reference compound]
delta oxygenator P: ~23 mmHg

Bridge positions count the residues as written; N and C are the ends. Peptide text beside a SMILES is read from it.
